Experimental data from the supplement of paper PMC10849652.
This is one part of the list.

Protein sequences, listed by entry. Tags and fused reporters are not part of them. Lines headed by an entry give the natural chain unless they say otherwise; changes in a name come on top.
UniProt A0PK00: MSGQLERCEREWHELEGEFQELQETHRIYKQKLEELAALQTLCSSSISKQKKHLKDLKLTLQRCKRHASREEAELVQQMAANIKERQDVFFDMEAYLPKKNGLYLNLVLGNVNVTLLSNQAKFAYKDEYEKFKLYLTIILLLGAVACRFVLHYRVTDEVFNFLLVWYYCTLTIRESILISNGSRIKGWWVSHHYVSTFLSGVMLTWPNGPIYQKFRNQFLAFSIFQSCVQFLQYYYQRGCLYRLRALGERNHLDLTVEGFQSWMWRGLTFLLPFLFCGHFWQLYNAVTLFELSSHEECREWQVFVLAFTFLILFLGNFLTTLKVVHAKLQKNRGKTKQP
UniProt Q04726: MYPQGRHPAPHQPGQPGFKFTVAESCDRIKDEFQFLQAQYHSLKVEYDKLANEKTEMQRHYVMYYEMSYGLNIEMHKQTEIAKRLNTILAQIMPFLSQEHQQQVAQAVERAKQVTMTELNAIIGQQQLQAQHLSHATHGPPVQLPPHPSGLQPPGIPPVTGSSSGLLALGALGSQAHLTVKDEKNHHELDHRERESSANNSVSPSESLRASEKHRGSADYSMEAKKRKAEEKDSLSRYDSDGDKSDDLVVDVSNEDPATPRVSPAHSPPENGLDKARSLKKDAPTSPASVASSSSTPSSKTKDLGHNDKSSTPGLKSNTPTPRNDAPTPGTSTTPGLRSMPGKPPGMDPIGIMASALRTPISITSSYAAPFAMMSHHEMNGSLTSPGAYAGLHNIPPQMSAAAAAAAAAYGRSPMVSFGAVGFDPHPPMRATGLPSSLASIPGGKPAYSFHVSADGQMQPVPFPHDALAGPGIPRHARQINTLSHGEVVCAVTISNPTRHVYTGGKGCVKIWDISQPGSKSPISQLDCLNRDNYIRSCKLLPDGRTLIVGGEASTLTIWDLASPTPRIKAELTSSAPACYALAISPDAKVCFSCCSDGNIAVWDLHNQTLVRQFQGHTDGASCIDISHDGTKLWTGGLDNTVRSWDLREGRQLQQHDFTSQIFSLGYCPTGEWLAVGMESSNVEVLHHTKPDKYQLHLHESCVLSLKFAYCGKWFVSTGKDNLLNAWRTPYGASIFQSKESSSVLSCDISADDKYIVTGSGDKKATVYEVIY
UniProt Q9NS93: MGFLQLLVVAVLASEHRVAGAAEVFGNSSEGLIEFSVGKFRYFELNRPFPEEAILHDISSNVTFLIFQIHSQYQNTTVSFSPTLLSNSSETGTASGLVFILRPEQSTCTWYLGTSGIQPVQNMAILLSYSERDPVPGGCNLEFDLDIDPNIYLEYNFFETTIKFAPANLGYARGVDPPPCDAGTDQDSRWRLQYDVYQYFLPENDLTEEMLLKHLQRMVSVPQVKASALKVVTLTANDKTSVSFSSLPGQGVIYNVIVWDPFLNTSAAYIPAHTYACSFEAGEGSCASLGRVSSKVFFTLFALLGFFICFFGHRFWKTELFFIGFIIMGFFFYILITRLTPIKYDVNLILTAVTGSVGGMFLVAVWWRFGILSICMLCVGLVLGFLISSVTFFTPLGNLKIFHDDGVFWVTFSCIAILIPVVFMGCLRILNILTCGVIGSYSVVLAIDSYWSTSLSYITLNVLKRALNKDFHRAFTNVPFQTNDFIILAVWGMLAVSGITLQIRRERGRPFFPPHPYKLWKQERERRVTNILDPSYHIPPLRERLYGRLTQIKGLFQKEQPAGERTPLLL
UniProt Q9NPI0: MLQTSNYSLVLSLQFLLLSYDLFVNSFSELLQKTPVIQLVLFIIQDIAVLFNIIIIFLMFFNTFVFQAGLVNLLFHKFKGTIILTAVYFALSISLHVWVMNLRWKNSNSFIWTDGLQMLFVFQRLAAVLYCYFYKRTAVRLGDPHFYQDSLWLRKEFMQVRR
UniProt Q9NUM4, whole entry, looked up: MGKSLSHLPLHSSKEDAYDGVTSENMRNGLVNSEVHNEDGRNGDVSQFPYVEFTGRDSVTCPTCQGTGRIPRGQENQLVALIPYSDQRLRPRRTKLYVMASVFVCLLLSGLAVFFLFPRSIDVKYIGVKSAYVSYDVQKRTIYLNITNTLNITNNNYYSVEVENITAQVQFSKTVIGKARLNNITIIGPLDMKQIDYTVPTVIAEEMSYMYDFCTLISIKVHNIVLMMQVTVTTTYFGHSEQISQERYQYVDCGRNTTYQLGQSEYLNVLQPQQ
UniProt O00142: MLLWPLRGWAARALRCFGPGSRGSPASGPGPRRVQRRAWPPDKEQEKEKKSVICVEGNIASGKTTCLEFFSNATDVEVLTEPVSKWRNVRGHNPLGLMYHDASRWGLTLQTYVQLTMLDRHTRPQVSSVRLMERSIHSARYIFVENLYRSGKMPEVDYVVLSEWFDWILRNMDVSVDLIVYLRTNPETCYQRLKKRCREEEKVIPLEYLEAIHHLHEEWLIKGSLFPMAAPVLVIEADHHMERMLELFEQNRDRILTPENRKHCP
UniProt O43615: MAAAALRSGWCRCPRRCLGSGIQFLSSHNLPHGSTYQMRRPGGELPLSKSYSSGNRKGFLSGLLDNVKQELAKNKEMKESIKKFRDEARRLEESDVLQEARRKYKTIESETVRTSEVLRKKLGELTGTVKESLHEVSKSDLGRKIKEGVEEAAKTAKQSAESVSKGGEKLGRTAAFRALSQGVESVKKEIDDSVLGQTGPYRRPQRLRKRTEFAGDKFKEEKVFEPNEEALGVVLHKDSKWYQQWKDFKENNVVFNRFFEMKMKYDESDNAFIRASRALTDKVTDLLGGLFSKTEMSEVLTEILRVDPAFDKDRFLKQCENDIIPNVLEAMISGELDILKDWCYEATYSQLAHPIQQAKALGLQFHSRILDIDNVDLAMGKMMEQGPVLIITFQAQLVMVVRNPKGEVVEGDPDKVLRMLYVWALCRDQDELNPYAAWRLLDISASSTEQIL
UniProt Q9BZW5, whole entry, looked up: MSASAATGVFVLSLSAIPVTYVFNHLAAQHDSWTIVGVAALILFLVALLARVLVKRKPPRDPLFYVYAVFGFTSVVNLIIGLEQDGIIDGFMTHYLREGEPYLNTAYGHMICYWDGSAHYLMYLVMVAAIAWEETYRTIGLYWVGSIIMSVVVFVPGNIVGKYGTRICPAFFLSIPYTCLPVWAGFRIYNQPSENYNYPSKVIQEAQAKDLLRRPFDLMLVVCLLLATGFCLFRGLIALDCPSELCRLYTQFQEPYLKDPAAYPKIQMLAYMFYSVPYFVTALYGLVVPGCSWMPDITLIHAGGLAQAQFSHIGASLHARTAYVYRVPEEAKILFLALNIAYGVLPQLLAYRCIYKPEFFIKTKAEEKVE
UniProt Q9P2C4: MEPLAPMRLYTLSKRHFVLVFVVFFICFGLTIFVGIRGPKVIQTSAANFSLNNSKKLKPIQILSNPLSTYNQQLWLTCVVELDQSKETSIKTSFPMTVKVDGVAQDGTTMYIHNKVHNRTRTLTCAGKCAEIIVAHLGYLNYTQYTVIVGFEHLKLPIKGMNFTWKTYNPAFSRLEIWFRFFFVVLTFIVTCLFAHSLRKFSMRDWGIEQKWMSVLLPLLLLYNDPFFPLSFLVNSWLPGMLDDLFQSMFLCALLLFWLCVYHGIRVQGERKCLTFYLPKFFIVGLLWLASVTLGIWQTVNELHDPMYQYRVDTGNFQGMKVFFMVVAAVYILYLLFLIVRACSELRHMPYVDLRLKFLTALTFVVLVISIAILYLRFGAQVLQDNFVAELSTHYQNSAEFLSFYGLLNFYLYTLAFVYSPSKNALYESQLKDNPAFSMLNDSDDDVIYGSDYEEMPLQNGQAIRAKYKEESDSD
UniProt Q86W42: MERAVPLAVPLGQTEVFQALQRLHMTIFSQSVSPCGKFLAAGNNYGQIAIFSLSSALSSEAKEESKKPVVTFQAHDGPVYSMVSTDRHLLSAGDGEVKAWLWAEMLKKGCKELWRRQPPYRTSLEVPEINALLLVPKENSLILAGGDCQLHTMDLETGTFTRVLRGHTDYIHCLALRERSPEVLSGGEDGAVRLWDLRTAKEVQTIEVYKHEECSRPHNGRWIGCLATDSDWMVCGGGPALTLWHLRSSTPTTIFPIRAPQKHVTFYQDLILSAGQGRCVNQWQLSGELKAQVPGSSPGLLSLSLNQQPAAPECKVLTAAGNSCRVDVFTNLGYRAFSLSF
UniProt Q15583: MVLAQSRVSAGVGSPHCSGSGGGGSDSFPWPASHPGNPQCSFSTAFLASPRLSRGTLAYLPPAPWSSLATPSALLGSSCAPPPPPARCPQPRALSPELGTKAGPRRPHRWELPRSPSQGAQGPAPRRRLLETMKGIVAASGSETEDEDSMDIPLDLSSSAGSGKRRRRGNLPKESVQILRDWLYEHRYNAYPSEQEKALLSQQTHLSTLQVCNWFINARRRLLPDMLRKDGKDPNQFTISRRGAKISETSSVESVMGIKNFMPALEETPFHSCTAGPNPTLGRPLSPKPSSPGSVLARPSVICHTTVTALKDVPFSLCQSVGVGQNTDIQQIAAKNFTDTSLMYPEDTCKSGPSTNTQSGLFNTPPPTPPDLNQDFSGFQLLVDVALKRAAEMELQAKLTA
UniProt Q9BT49: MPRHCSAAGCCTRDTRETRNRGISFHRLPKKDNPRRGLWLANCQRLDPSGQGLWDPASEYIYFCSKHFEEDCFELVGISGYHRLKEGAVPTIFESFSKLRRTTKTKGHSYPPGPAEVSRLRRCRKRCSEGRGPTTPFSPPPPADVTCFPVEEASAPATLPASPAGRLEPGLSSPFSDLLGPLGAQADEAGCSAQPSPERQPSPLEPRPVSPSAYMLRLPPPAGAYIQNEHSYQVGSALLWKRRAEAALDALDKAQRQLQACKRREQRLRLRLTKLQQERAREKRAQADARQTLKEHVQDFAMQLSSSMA

What was measured:
Assay in all cases: log2 fold change, soluble protein after heating vs DMSO (PISA); higher = thermal stabilisation; K562 lysate, 10 uM; active = over 0.2 and 3.5 SD of the protein, either way, in both replicates (recomputed)
erlotinib = compound: C#Cc1cccc(Nc2ncnc3cc(OCCOC)c(OCCOC)cc23)c1 [erlotinib]
How it was run: (§1)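 Dounce homogenisation of K562 pellets in PBS pH 7.4 with 1 mM MgCl2 produced a crude extract, used at 1 mg/mL protein. Exposure to 10 μM compound lasted 30 min, and aliquots were then heated for 3 min across 48°C-58°C, pooled and brought to 0.5% NP-40 at 4°C. The supernatant after 21,000xg for 90 min was quantified by TMTpro 16plex LC-MS/MS with channel sums equalised. Duplicate values are given as log-two fold change in thermal stability relative to solvent controls.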

[1] = compound: C/C(=N\NC(=O)C1=CC(=CC=C1)S(=O)(=O)N2CCOCC2)/C3=C(C=CC(=C3)Cl)O
How it was run: as §1

[2] = compound: C1=CC(=CC=C1C2=NC3=C(N2)C=C(C=C3)C(=O)N)OC4=CC=C(C=C4)Cl
How it was run: as §1

[3] = compound: C1=CC2=C(C=CC(=C2)/C=C\3/C(=O)NC(=NCC4=CC=CS4)S3)N=C1
How it was run: as §1

[4] = compound: C1=CC=C2C(=C1)C3=NNC4=CC=CC(=C43)C2=O
How it was run: as §1

[5] = compound: C1CCN(C1)C(=O)NC2=CC=CC(=C2)NC3=NC=C(C(=N3)NCCC4=CN=CN4)Br
How it was run: as §1

[6] = compound: C1CN(CCC1(CC2=CC=C(C=C2)Cl)N)C3=NC=NC4=C3C=CN4
How it was run: as §1

[7] = compound: CC(=O)c1cnc2ccc(-c3cc(Cl)c(O)c(Cl)c3)nc2c1N[C@H]1CC[C@H](CN(C)C)CC1
How it was run: as §1

[8] = compound: CC(C)C1=C2N=C(C=C(N2N=C1)NCC3=CC=CC=C3)NCCCCCCN
How it was run: as §1

[9] = compound: CC1=C(C2=C(C=C1)C(=O)C3=CC=CC=C3N2CCCN)C
How it was run: as §1

[10] = compound: CC1=C(C=C(C=C1)NC(=O)C2=CC(=CC=C2)C(C)(C)C#N)NC3=CC4=C(C=C3)N=CN(C4=O)C
How it was run: as §1

[11] = compound: CC1=CC=C(C=C1)SC2=C3C=C(SC3=CN=C2)C(=O)N
How it was run: as §1

[12] = compound: C1=CC2=NC=CN=C2C=C1/C=C/3\C(=O)NC(=O)S3
How it was run: as §1

[13] = compound: C1=CC=C(C=C1)C2=NC(=C(N2)C3=CC=NC=C3)C4=CC(=C(C=C4)Cl)O
How it was run: as §1

IRAK-1-4 Inhibitor I = compound: C1COCCN1CCN2C3=CC=CC=C3N=C2NC(=O)C4=CC(=CC=C4)[N+](=O)[O-] [IRAK-1-4 Inhibitor I]
How it was run: as §1

ibrutinib = compound: C=CC(=O)N1CCC[C@@H](n2nc(-c3ccc(Oc4ccccc4)cc3)c3c(N)ncnc32)C1 [ibrutinib]
How it was run: as §1

ralimetinib = compound: CC(C)(C)Cn1c(N)nc2ccc(-c3[nH]c(C(C)(C)C)nc3-c3ccc(F)cc3)nc21 [ralimetinib]
How it was run: as §1

[14] = compound: CC(C)(O)CC(=O)NCCn1ccc2ncnc(Nc3ccc(Oc4cccc(C(F)(F)F)c4)c(Cl)c3)c21
How it was run: as §1

[15] = compound: CC1=C(C(CC(=O)N1)C2=CC=C(C=C2)C(F)(F)F)C(=O)NC3=C(C=C4C(=C3)C=NN4)F
How it was run: as §1

[16] = compound: CC1=C(C=C(C=C1)NC(=O)C2=CC(=CC=C2)N(C)C)NC(=O)C3=CC=C(C=C3)O
How it was run: as §1

Measured: log2 fold change

TMEM120B (UniProt A0PK00)
inactive: erlotinib 0.095 | [1] 0.068 | [2] -0.139 | [3] 0.136 | [4] -0.02 | [5] -0.07 | [6] -0.005 | [7] 0.039 | [8] -0.108 | [9] 0.047 | [10] 0.137 | [11] -0.106

TLE3 isoform 4 (UniProt Q04726)
inactive: erlotinib 0.005 | [1] -0.025 | [2] 0.03 | [3] -0.012 | [12] 0 | [13] 0.016 | [4] -0.002 | [5] -0.006 | [6] 0.029 | IRAK-1-4 Inhibitor I -0.016 | ibrutinib -0.002 | [7] -0.01 | ralimetinib 0.003 | [14] -0.005 | [8] 0 | [15] -0.023 | [9] 0.012 | [10] -0.016 | [16] 0.003 | [11] -0.022

TM7SF3 (UniProt Q9NS93)
inactive: erlotinib 0.03 | [1] 0.014 | [2] 0.046 | [3] 0.063 | [12] -0.008 | [13] 0.01 | [4] -0.094 | [5] 0.131 | [6] 0.109 | IRAK-1-4 Inhibitor I 0.016 | ibrutinib -0.012 | ralimetinib 0 | [14] -0.051 | [8] -0.079 | [9] -0.013 | [10] 0.047 | [16] 0.123

TMEM138 (UniProt Q9NPI0)
inactive: erlotinib -0.216 | [1] -0.164 | [2] 0.074 | [3] 0.007 | [4] 0.034 | [5] -0.179 | [6] 0.017 | [8] -0.017 | [9] -0.129

Quoted at random: two records from the list, in no set order.
TMEM120B (UniProt A0PK00)
inactive: erlotinib 0.095 | [1] 0.068 | [2] -0.139 | [3] 0.136 | [4] -0.02 | [5] -0.07 | [6] -0.005 | [7] 0.039 | [8] -0.108 | [9] 0.047 | [10] 0.137 | [11] -0.106

TM7SF3 (UniProt Q9NS93)
inactive: erlotinib 0.03 | [1] 0.014 | [2] 0.046 | [3] 0.063 | [12] -0.008 | [13] 0.01 | [4] -0.094 | [5] 0.131 | [6] 0.109 | IRAK-1-4 Inhibitor I 0.016 | ibrutinib -0.012 | ralimetinib 0 | [14] -0.051 | [8] -0.079 | [9] -0.013 | [10] 0.047 | [16] 0.123

Remaining list, next part

TJP1 (UniProt G3V1L9)
inactive: erlotinib 0.169 | [1] 0.199 | [2] 0.087 | [3] -0.119 | [12] -0.068 | [13] 0.014 | [4] 0.063 | IRAK-1-4 Inhibitor I 0.047 | ibrutinib 0.024 | ralimetinib 0.075 | [14] -0.014 | [8] -0.025 | [15] -0.041 | [9] 0.022 | [10] -0.017 | [16] -0.041

TMEM106B (UniProt Q9NUM4)
inactive: erlotinib 0.012 | [1] -0.042 | [2] 0.009 | [3] 0.014 | [12] -0.001 | [13] -0.012 | [4] -0.026 | [5] -0.018 | [6] 0.027 | IRAK-1-4 Inhibitor I 0.03 | ibrutinib 0.065 | [7] -0.08 | ralimetinib 0.033 | [14] 0.053 | [8] -0.023 | [15] 0.056 | [9] -0.061 | [10] 0.027 | [16] -0.037 | [11] -0.017

TK2 isoform 6 (UniProt O00142)
inactive: erlotinib 0.081 | [1] 0.051 | [2] 0.027 | [3] -0.001 | [12] 0 | [13] 0.083 | [4] -0.013 | [5] 0.096 | [6] -0.113 | IRAK-1-4 Inhibitor I 0.111 | ibrutinib -0.192 | [7] 0.072 | ralimetinib -0.164 | [14] -0.174 | [8] -0.097 | [9] -0.051 | [10] 0.061 | [16] 0.078 | [11] 0.053

TIMM44 (UniProt O43615)
inactive: erlotinib -0.019 | [1] -0.02 | [2] -0.008 | [3] -0.019 | [12] 0.041 | [13] -0.012 | [4] 0.03 | [5] -0.019 | [6] 0.004 | IRAK-1-4 Inhibitor I -0.011 | ibrutinib 0.03 | [7] 0.005 | ralimetinib -0.008 | [14] -0.076 | [8] 0.013 | [15] 0.066 | [9] 0.025 | [10] -0.035 | [16] -0.005 | [11] 0.015

TM6SF1 (UniProt Q9BZW5)
inactive: erlotinib -0.083 | [1] -0.004 | [2] 0.074 | [3] -0.088 | [12] -0.045 | [4] 0.109 | [5] -0.01 | [6] 0.084 | ibrutinib -0.032 | [7] -0.012 | [8] 0.079 | [9] -0.102 | [10] -0.083 | [11] -0.042

TMEM167B (UniProt Q9NRX6)
inactive: erlotinib -0.061 | [1] -0.016 | [2] -0.006 | [3] -0.042 | [12] -0.044 | [13] -0.002 | [4] 0.013 | [5] -0.056 | [6] 0.036 | IRAK-1-4 Inhibitor I -0.014 | ibrutinib 0.019 | [7] -0.02 | ralimetinib 0.015 | [14] 0.001 | [8] -0.02 | [15] -0.058 | [10] 0.021 | [16] 0.035 | [11] -0.033

TMEM181 (UniProt Q9P2C4)
inactive: erlotinib 0.015 | [1] -0.172 | [2] 0.065 | [3] -0.184 | [12] 0.018 | [13] -0.015 | [4] -0.043 | [5] 0.03 | [6] 0.005 | IRAK-1-4 Inhibitor I -0.042 | ibrutinib -0.014 | [7] -0.078 | ralimetinib -0.044 | [14] 0.003 | [8] -0.034 | [9] -0.037 | [10] 0.036 | [16] 0.056 | [11] -0.096

THOC6 (UniProt Q86W42)
inactive: erlotinib -0.023 | [1] -0.067 | [2] -0.027 | [3] 0.003 | [12] -0.035 | [13] -0.022 | [4] -0.036 | [5] -0.018 | [6] 0.027 | IRAK-1-4 Inhibitor I 0.007 | ibrutinib -0.048 | [7] -0.02 | ralimetinib -0.022 | [14] -0.027 | [8] -0.013 | [15] -0.026 | [9] 0.002 | [10] -0.022 | [16] 0 | [11] 0

TGIF1 (UniProt Q15583)
inactive: erlotinib 0.001 | [2] 0.116 | [8] 0.018 | [10] -0.063

THAP7 (UniProt Q9BT49)
inactive: [15] -0.062

TLE3 (UniProt H0YL70)
inactive: [9] 0.004
